Patent US20220049008A1 (MULTITUDE, published 2022)
No constants are given. Whether binding was seen depends on the method and setting. Some binding calls cover weakened binding; strength is not graded here. For some assays here: Sequences can lack the tags named with a protein.

Amino acid sequences for entries named in this document (tags omitted). A change or cut given only in a name is not applied to a line headed by its entry.
UniProt P16070: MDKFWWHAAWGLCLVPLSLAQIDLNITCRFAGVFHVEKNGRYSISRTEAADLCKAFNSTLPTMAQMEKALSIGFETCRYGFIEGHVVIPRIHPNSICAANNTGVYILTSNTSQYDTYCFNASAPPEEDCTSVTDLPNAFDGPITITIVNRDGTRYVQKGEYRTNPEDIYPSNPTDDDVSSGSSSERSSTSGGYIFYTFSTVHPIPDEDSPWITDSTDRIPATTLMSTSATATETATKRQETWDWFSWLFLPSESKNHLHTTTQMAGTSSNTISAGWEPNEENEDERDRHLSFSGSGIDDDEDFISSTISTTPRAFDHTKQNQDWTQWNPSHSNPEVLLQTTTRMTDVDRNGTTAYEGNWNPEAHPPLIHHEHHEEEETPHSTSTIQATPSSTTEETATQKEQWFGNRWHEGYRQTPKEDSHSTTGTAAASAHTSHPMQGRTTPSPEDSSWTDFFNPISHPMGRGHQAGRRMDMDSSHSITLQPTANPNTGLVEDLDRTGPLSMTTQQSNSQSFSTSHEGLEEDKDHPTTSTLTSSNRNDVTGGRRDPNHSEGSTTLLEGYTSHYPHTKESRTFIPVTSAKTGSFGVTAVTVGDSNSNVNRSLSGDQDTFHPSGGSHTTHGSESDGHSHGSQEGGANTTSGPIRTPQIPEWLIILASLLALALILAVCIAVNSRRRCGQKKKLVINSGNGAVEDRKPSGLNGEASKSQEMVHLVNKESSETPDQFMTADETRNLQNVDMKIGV

T1: CD44 v7/8 peptide (…) (human)
T1 sequence (peptide): QAGRRMDMDSSHSIT


Experiments:
[1] = target: CD44 v7/8 (human CD44 v7/8 splice variant) on CD44+ cells (human) (UniProt P16070); assay: flow cytometry on A253 cells
[2] = target: CD44 v7/8 (human CD44 v7/8 splice variant) on CD44+ cells (human) (UniProt P16070); assay: flow cytometry on CD44+ A253 cells, antibody titration
HIS029 = assay: peptide blocking in flow cytometry: binding of HIS029 to CD44 v7/8 on D562 cells is blocked by the peptide; peptide concentration not given
[3] = target: T1, CD44 v7/8 peptide (…) (human); assay: flow cytometry on D562 cells, peptide competition
[4] = target: CD44 v7/8 (human CD44 v7/8 splice variant) on CD44+ cells (human) (UniProt P16070); assay: flow cytometry on D562 cells
[5] = target: CD44 v7/8 (human CD44 v7/8 splice variant) on CD44+ cells (human) (UniProt P16070); assay: flow cytometry on CD44+ Detroit 562 (D562) cells, one antibody concentration (not given), no peptide

binding [1] | binding [2] | binding (HIS029) | binding [3] | binding [4] | binding [5] | Binder
binds | binds |  |  |  |  | Humanized HIS029 (antibody, V domains shown, also called humanized HIS029 antibody) VH: QVQLVQSGSELKKPGASVKVSCKASGYTFTNYWINWVRQAPGQGLEWMGNIYPSDSYTNYNQKFKDRAVFSVDKSVSTAYLQISSLKAEDTAVYYCTKWGDSDYWGQGTTVTVSS VL: DIQMTQSPSSLSASVGDRVTITCKASQDINRYLRWFQQKPGKSPKTLIYRANRLVDGVPSRFSGSGSGQDYTLTISSLQPEDFATYYCLQYDEFPFTFGQGTKLEIK
 |  | binds |  |  |  | QAGRRMDMDSSHSIT [CD44 v7/8 peptide (…)]
binds | binds |  | binds | binds | binds | HIS029 (antibody, V domains shown, Monoclonal antibody from a hybridoma, V regions amplified with mouse Ig primers; also called anti-CD44 v7/8 antibody; antibody clone HIS029) VH: QVHLQQPGAELVRPGASVKLSCKASGYTFTNYWINWVKQRPGQGLEWIGNIYPSDSYTNYNQKFKDKATLTVDKSSSTAYVHLSSPTSEDSAVYYCTKWGDSDYWGQGTTLTVSS VL: DIKMTQSPSSMYASLGERVTITCKASQDINRYLRWFQQKPGKSPKTLIYRANRLVDGVPSRFSGSGSGQDYSLTISSLEYEDMGIYYCLQYDEFPFTFGSGTKLEIK
